The text below walks through data of the supplement of paper PMC10735217.

This assay has as its system HEK293A TEAD-LUC reporter. Kind of assay: TEAD-luciferase reporter activity (YAP activation), robust Z score vs plate; higher = stronger YAP/TEAD activation. The conditions noted are these: 24 h.

Counter-ions that a name gives are not always drawn. Some of the results follow. Single values are uncertain here, since repeats match poorly.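 The human kidney-derived cells carry a stably integrated construct of eight TEAD-binding elements driving luciferase, read by luminescence in a drug-repurposing library screen. A compound counts as a hit when its signal is more than five robust Z scores above the plate mean.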

In the case of `O=C(c1ccc(F)cc1)C1CCN(CCn2c(=S)[nH]c3ccccc3c2=O)CC1` [altanserin], the TEAD-luciferase reporter activity (compound concentration: 2 uM) was inactive: -1.26.
`O=C(c1ccc(F)cc1)C1CCN(CCn2c(=S)[nH]c3ccccc3c2=O)CC1` [Altanserin]: the TEAD-luciferase reporter activity runs as follows: (compound concentration: 200 nM) inactive: -0.677; (compound concentration: 10 uM) inactive: -0.415.
As to `Nc1nc(=O)n([C@@H]2O[C@H](CO)[C@@H](O)[C@@H]2F)cc1I` [FIAC, Pharmos], the TEAD-luciferase reporter activity by setting is: (compound concentration: 200 nM) inactive: 2.77; (compound concentration: 2 uM) inactive: -0.103; (compound concentration: 10 uM) inactive: 4.43.
On to `CC1=C(C(=O)OC(C)C)C(c2ccc3c(c2)OCO3)C(C(=O)OC(C)C)=C(C)N1`, for which the TEAD-luciferase reporter activity (compound concentration: 200 nM) is inactive: -3.52, the TEAD-luciferase reporter activity (compound concentration: 2 uM) is inactive: -0.804 and the TEAD-luciferase reporter activity (compound concentration: 10 uM) is inactive: -0.752.
Regarding `CO/N=C(/C(=O)NC1C(=O)N2C(C(=O)OCOC(=O)C(C)(C)C)=C(Cn3nnc(C)n3)CS[C@H]12)c1csc(N)n1` (some centres undefined) [Cefteram Pivoxil], the TEAD-luciferase reporter activity is inactive: -0.867 (compound concentration: 200 nM), inactive: -1.68 (compound concentration: 2 uM) and inactive: 0.112 (compound concentration: 10 uM).
`CN(C)CCON=C1c2ccccc2CCc2ccccc21`: the TEAD-luciferase reporter activity is inactive: -0.207 (compound concentration: 200 nM), inactive: 1.93 (compound concentration: 2 uM) and inactive: 1.69 (compound concentration: 10 uM).
In the case of `N#CN=c1scnn1C1OC(CO)C(O)C1O` (centres undefined), the TEAD-luciferase reporter activity is, setting by setting: (compound concentration: 200 nM) inactive: -1.06; (compound concentration: 2 uM) inactive: -1.22; (compound concentration: 10 uM) inactive: -0.0091.
Regarding `Oc1c(Cl)cc(Cl)c2cccnc12` [Chloroxine], the TEAD-luciferase reporter activity is inactive: -0.896 (compound concentration: 200 nM) and inactive: -0.0774 (compound concentration: 10 uM).
As for `Oc1c(Cl)cc(Cl)c2cccnc12`, the TEAD-luciferase reporter activity (compound concentration: 2 uM) was inactive: 0.0733.
For the compound `Cc1cccc(N2CC(CO)OC2=O)c1` (centres undefined) [toloxatone], the TEAD-luciferase reporter activity is inactive: -1.96 (compound concentration: 200 nM), inactive: 1.87 (compound concentration: 2 uM) and inactive: -2.36 (compound concentration: 10 uM).
With `CC(C)(C#N)c1cc(Cn2cncn2)cc(C(C)(C)C#N)c1`, the TEAD-luciferase reporter activity is, setting by setting: (compound concentration: 200 nM) inactive: 0.453; (compound concentration: 10 uM) inactive: 0.0914.
`CC(C)(C#N)c1cc(Cn2cncn2)cc(C(C)(C)C#N)c1` [anastrozole]: where the note is “compound concentration: 2 uM”, the TEAD-luciferase reporter activity was inactive: -1.1.
As to `CCOC(=O)c1c(C)cc2c(CO)n[nH]c(=O)c2c1C` [oxagrelate], the TEAD-luciferase reporter activity was inactive: -1.17 (compound concentration: 200 nM), inactive: 0.0515 (compound concentration: 2 uM) and inactive: -0.157 (compound concentration: 10 uM).
In the case of `COc1ccc2c3c1O[C@H]1C[C@@H](O)C=C[C@@]31CCN(C)C2` [galantamine], under “compound concentration: 2 uM”, the TEAD-luciferase reporter activity was inactive: -1.42.
With `COc1ccc2c3c1O[C@H]1C[C@@H](O)C=C[C@@]31CCN(C)C2` [Galanthamine], the TEAD-luciferase reporter activity reads like this: (compound concentration: 200 nM) inactive: 2.2; (compound concentration: 10 uM) inactive: -1.19.
Turning to `C#CC(OC(=O)NC1CCCCC1)(c1ccccc1)c1ccccc1`, the TEAD-luciferase reporter activity is, setting by setting: (compound concentration: 200 nM) inactive: 1.68; (compound concentration: 2 uM) inactive: -0.609; (compound concentration: 10 uM) inactive: 0.495.
On to `CC(C)N1CCN(c2ccc(N3CCN(c4ccc(OC[C@@H]5OC[C@@](Cn6cncn6)(c6ccc(F)cc6F)O5)cc4)CC3)cc2)C1=O`, for which the TEAD-luciferase reporter activity was inactive: -2.36 (compound concentration: 200 nM), inactive: -0.484 (compound concentration: 2 uM) and inactive: 0.0651 (compound concentration: 10 uM).
Regarding `O=C(O)[C@H](O)[C@@H](O)[C@H](O[C@@H]1O[C@H](CO)[C@H](O)[C@H](O)[C@H]1O)[C@H](O)CO` [Lactobionic acid], the TEAD-luciferase reporter activity is inactive: -1.13 (compound concentration: 200 nM), inactive: 1.37 (compound concentration: 2 uM) and inactive: -0.667 (compound concentration: 10 uM).
Regarding `CCc1nc(N)nc(N)c1-c1ccc(Cl)c(N=[N+]=[N-])c1`, the TEAD-luciferase reporter activity is inactive: 2.11 (compound concentration: 200 nM), inactive: 0.197 (compound concentration: 2 uM) and inactive: -0.427 (compound concentration: 10 uM).
`CC[N+]1(CC)CCC(=C(c2ccccc2)c2ccccc2)C1C` (centres undefined): the TEAD-luciferase reporter activity was inactive: -0.57 (compound concentration: 200 nM), inactive: -0.494 (compound concentration: 2 uM) and inactive: 0.987 (compound concentration: 10 uM).
As for `COCCOC(=O)C1=C(C)NC(C)=C(C(=O)OC(C)C)C1c1cccc([N+](=O)[O-])c1` (centres undefined) [Nimodipine], the TEAD-luciferase reporter activity (compound concentration: 2 uM) is inactive: -0.339.
Turning to `COCCOC(=O)C1=C(C)NC(C)=C(C(=O)OC(C)C)C1c1cccc([N+](=O)[O-])c1` (centres undefined), the TEAD-luciferase reporter activity (compound concentration: 200 nM) is inactive: -0.0766 and the TEAD-luciferase reporter activity (compound concentration: 10 uM) was inactive: -0.927.
With `C[C@]12CC[C@@H]3c4ccc(O)cc4CC[C@H]3[C@@H]1CC[C@@H]2OC(=O)CCC1CCCC1` [Estradiol (cypionate)], the TEAD-luciferase reporter activity (compound concentration: 2 uM) is inactive: 0.0757.
`C[C@]12CC[C@@H]3c4ccc(O)cc4CC[C@H]3[C@@H]1CC[C@@H]2OC(=O)CCC1CCCC1` [Estradiol cypionate]: the TEAD-luciferase reporter activity is inactive: -0.68 (compound concentration: 200 nM) and inactive: -1.38 (compound concentration: 10 uM).
As for `CCCc1ccc(NS(=O)(=O)Cc2ccccc2)c(=O)n1CC(=O)NCCc1cccnc1`, the TEAD-luciferase reporter activity (compound concentration: 200 nM) was inactive: -0.661, the TEAD-luciferase reporter activity (compound concentration: 2 uM) is inactive: 0.491 and the TEAD-luciferase reporter activity (compound concentration: 10 uM) was inactive: -0.344.
Turning to `CCCc1cc(=O)[nH]c(=S)[nH]1` [Propylthiouracil], the TEAD-luciferase reporter activity runs as follows: (compound concentration: 200 nM) inactive: 0.883; (compound concentration: 2 uM) inactive: 1.07; (compound concentration: 10 uM) inactive: 2.31.
For `O=C(/C=C/c1cccc(F)c1)NC1CC1` [cinflumide] the same measures were inactive: -0.802, inactive: 0.38 and inactive: -0.915.
On to `CCN(CC)CC/C(=N\OC(=O)Nc1ccc(OC)cc1)c1ccccc1` [Anidoxime hydrochloride], for which the TEAD-luciferase reporter activity by setting is: (compound concentration: 200 nM) inactive: -0.582; (compound concentration: 2 uM) inactive: -0.447; (compound concentration: 10 uM) inactive: -0.078.
Consider `CC(=O)N[C@H](Cc1ccc2ccccc2c1)C(=O)N[C@H](Cc1ccc(Cl)cc1)C(=O)N[C@H](Cc1cccnc1)C(=O)N[C@@H](CO)C(=O)N(C)[C@@H](Cc1ccc(O)cc1)C(=O)N[C@H](CC(N)=O)C(=O)N[C@@H](CC(C)C)C(=O)N[C@@H](CCCCNC(C)C)C(=O)N1CCC[C@H]1C(=O)N[C@H](C)C(N)=O` [Abarelix], for which the TEAD-luciferase reporter activity is, setting by setting: (compound concentration: 200 nM) inactive: -0.834; (compound concentration: 2 uM) inactive: -0.369; (compound concentration: 10 uM) inactive: 0.0662.
